PubChem BioAssay AID2685 (National Center for Advancing Translational Sciences (NCATS), 2010)
The list shows a part of the results. These are further read-outs of the screen, such as a control signal, another cell line or another target. No call is given for them. Compounds called inactive in the main read-out are mostly missing here. Potencies come from curve fits of mixed quality, noted in brackets.

Assay: qHTS Assay for Lipid Storage Modulators in Drosophila S3 Cells;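 as to cell number change: cells counted by Cell Tracker Red CMTPX staining in the red channel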
Settings: BODIPY lipid droplet fluorescence, 18-24 h; for cell number change: measured here: cell count max response, cells fed with added oleic acid
Summary of the method: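 Drosophila S3 cells got compounds at several concentrations plus oleic acid (400 uM solution). Laser-scanning cytometry with 488 nm excitation read lipid droplets at 500-530 nm and cells at 575-640 nm. Percent activity was relative to 20 uM Triacsin C.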

[1] = measured here: lipid fluorescence (Fed channel) AC50, cells fed with added oleic acid
[2] = measured here: cell number channel AC50, cells fed with added oleic acid

For Nc1cc(Cl)ccc1C(=O)OCC(=O)N1CCCC1, the cell number change was 12.8% and the AC50 [1] was 9.2 µM [falling, partial curve, poor fit].
NC(=O)c1ccc(Nc2ccc3c(c2)CCC3)c([N+](=O)[O-])c1 showed a cell number change of -20.3%.
For Cc1sc2nc(SCC(=O)NCc3ccco3)n(C)c(=O)c2c1C, the cell number change was -36.9%, the AC50 [2] was 29.1 µM [falling, single point] and the AC50 [1] was 29.1 µM [falling, single point].
Cc1cccc(CNC(=O)C2CCC(=O)N(Cc3ccccc3F)C2)n1 (configuration not stated) gave a cell number change of 5.25%.
For COc1ccc(C(CNC(=O)Cn2[nH]c(=O)c3ccccc3c2=O)N2CCCC2)cc1 (configuration not stated), the cell number change was 4.23% and the AC50 [1] was 0.517 µM [rising, single point].
With CCc1ccc(NC(=O)c2cc(S(=O)(=O)N3CCCC3)c[nH]2)cc1 the cell number change was 5.39% and the AC50 [1] was 6.51 µM [rising, single point].
For C=CCNC(=S)NCCO, the cell number change was -12.1% and the AC50 [1] was 29.1 µM [falling, single point].
In the case of CCn1cc(Cl)c(C(=O)NNC(=O)CCn2nc(C)c([N+](=O)[O-])c2C)n1, the cell number change is reported as -36.3%, the AC50 [2] is reported as 0.731 µM [rising, partial curve, poor fit] and the AC50 [1] is reported as 0.731 µM [rising, partial curve, poor fit].
For CCCCc1ccc(NC(=S)NCCc2ccc(S(N)(=O)=O)cc2)cc1, the cell number change was -30.5%, the AC50 [2] was 0.731 µM [falling, full curve, poor fit] and the AC50 [1] was 0.82 µM [falling, full curve].
Compound O=C(NCc1ccccc1)/C(=C/c1cccc([N+](=O)[O-])c1)NC(=O)c1ccco1 has a cell number change of -8.57%.
Compound COCCCN1C(=O)c2ccc(C(=O)OCC(=O)NCc3cccc(OC)c3)cc2C1=O has a cell number change of -2.2%.
In the case of O=C(N/N=C/c1cn(-c2ccccc2)nc1-c1cc2ccccc2o1)c1c[nH]c2ccccc12, the cell number change is reported as -5.73%.
For Cc1ccc(-c2cc(C(F)F)nc(N3CCOCC3)n2)cc1, the cell number change was -30.1% and the AC50 [1] was 1.3 µM [falling, partial curve].
With COc1cc(NC(=O)c2noc3c2CCCC3)c(OC)cc1Cl the cell number change was -17% and the AC50 [1] was 4.61 µM [falling, single point].
In the case of O=C(Oc1cccc(-n2cnnn2)c1)C1CCCCC1, the cell number change is reported as -3.76% and the AC50 [1] is reported as 0.0184 µM [falling, full curve].
In the case of CC(C)(C)c1ccccc1NC(=O)c1c(O)c2cccc3c2n(c1=O)CC3, the cell number change is reported as 9.74%, the AC50 [2] is reported as 4.11 µM [falling, single point] and the AC50 [1] is reported as 6.51 µM [falling, partial curve, poor fit].
For O=C(C1CCN(c2ncnc3c2sc2cccc(F)c23)CC1)N1CCOCC1, the AC50 [2] was 0.461 µM [rising, full curve] and the AC50 [1] was 0.461 µM [rising, full curve].
In the case of CCOC(=O)NC(=O)/C(C#N)=N\Nc1cccc(Cl)c1, the cell number change is reported as -27.5% and the AC50 [1] is reported as 13 µM [falling, partial curve, poor fit].
For COC(=O)c1ccc(S(=O)(=O)N2CCN(C)CC2)n1C, the cell number change was -43.9% and the AC50 [2] was 4.61 µM [falling, full curve, poor fit].
For Cc1ccc(-c2nnc(SCC(=O)N/N=C/c3ccc(C)s3)n2-c2ccccc2)cc1, the cell number change was 7.74%, the AC50 [2] was 0.731 µM [falling, full curve, poor fit] and the AC50 [1] was 4.11 µM [falling, full curve].
In the case of COc1ccc(CC(=O)N/N=C/c2c(C)n(C)c3ccccc23)cc1OC, the cell number change is reported as 25.6%, the AC50 [2] is reported as 0.13 µM [rising, full curve, poor fit] and the AC50 [1] is reported as 0.291 µM [rising, partial curve].
With O=C(Nc1cccc(Cl)c1N1CCCCC1)c1ccc2c(c1)OCCO2 the cell number change was -21.4% and the AC50 [1] was 0.058 µM [falling, full curve, poor fit].
For O=[N+]([O-])c1ccccc1S(=O)(=O)Nc1ccc(-c2ccc3nncn3n2)cc1, the cell number change was 55% and the AC50 [2] was 18.4 µM [rising, single point].
In the case of CC(Oc1ccc2c(-c3ccccc3)cc(=O)oc2c1)C(=O)O (configuration not stated), the cell number change is reported as -38%, the AC50 [2] is reported as 4.11 µM [falling, full curve] and the AC50 [1] is reported as 2.91 µM [falling, full curve].
For Cc1ccc(/C=N/NC(=O)c2nnn(-c3nonc3N)c2CSc2ccc(Cl)cc2)o1, the cell number change was -14.1% and the AC50 [1] was 29.1 µM [rising, single point].
For COc1cc(NC(=O)C2CCN(S(=O)(=O)c3cccs3)CC2)cc(OC)c1, the cell number change was -30.7% and the AC50 [2] was 32.6 µM [falling, single point].
In the case of CC1(C(=O)NC2CCCCC2)CCC(=O)N1Cc1cccs1 (configuration not stated), the cell number change is reported as -57.1% and the AC50 [1] is reported as 32.6 µM [falling, partial curve].
In the case of O=C(Nc1cccc(F)c1)Nc1ccnn1C1CCN(C(=O)CCN2CCCO2)CC1, the cell number change is reported as 16.8% and the AC50 [1] is reported as 6.51 µM [rising, partial curve, poor fit].
In the case of COc1ccc(CNS(=O)(=O)c2ccc(-c3ccc(=O)[nH]n3)o2)cc1, the cell number change is reported as -31.2% and the AC50 [2] is reported as 29.1 µM [falling, single point].
O=C(c1ccc(Br)o1)N1CCC(Cc2ccccc2)CC1 gave a cell number change of -19.3%.
With O=C(COc1ccccc1Cl)Nc1ccc2c(c1)OCO2 the cell number change was -17.1%, the AC50 [2] was 0.092 µM [rising, full curve, poor fit] and the AC50 [1] was 35.5 µM [falling, single point].
With CCOC(=O)N1CCN(C(=O)c2ccc(CS(=O)Cc3ccc(C)cc3)o2)CC1 (configuration not stated) the AC50 [1] was 11.6 µM [falling, partial curve, poor fit].
For Cc1ccccc1COn1nnc2ccc(S(=O)(=O)N3CCOCC3)cc21, the cell number change was 139% and the AC50 [2] was 29.1 µM [rising, single point].
For Fc1ccc(CNC(=S)Nc2cccc(C(F)(F)F)c2)cc1, the cell number change was -64.7%, the AC50 [2] was 18.4 µM [falling, partial curve] and the AC50 [1] was 23.1 µM [falling, partial curve, poor fit].
With O=C(COC(=O)c1ccncc1)NCc1ccccc1 the cell number change was -85.7%, the AC50 [2] was 4.61 µM [falling, full curve] and the AC50 [1] was 0.082 µM [falling, full curve].
In the case of Cc1ccc(NC(=O)c2c(Cl)nc3ccccn23)cc1, the AC50 [1] is reported as 0.103 µM [rising, full curve].
For Cc1nc2ccc(N)cc2c(=O)n1Cc1ccc(Cl)cc1, the cell number change was 18% and the AC50 [1] was 2.06 µM [rising, partial curve].
Compound COc1cccc2cc(C(=O)NCc3ccccc3Cl)c(=O)oc12 has a cell number change of -5.91%.
For COC(=O)C1CCN(S(=O)(=O)c2ccc(Br)s2)CC1, the cell number change was 14% and the AC50 [1] was 32.6 µM [rising, single point].
In the case of Cc1cccc(NC(=S)N2CCC(N(C)CC3CCCO3)CC2)c1C (configuration not stated), the cell number change is reported as 12.7% and the AC50 [1] is reported as 32.6 µM [rising, single point].
With Cc1cc(C)cc(NC(=O)C/C(N)=N/O)c1 the cell number change was -24.1% and the AC50 [1] was 0.651 µM [rising, partial curve, poor fit].
Work on Cc1ccc(S(=O)(=O)N2CCN(CC(=O)Nc3ccc(N4CCOCC4)cc3)CC2)cc1C yielded a cell number change of 9.66%.
For CN1C(=O)CSc2ccc(NC(=O)NCc3ccco3)cc21, the cell number change was 63.7%, the AC50 [2] was 0.517 µM [rising, partial curve] and the AC50 [1] was 1.16 µM [rising, full curve, poor fit].
In the case of COC(=O)c1cc(OC)c(OC)cc1NC(=O)C1CCC(=O)N1S(=O)(=O)c1ccc(C)cc1 (configuration not stated), the AC50 [2] is reported as 0.259 µM [rising, partial curve] and the AC50 [1] is reported as 0.082 µM [rising, full curve, poor fit].
Compound CN(C)S(=O)(=O)c1ccc(C(=O)NCc2ccccn2)cc1 has a cell number change of -19.5%.
In the case of CCc1nc(NCc2ccccn2)c2oc3ccccc3c2n1, the cell number change is reported as -30.4%, the AC50 [2] is reported as 13 µM [falling, single point] and the AC50 [1] is reported as 29.1 µM [rising, single point].
For CCOc1ccc(OCCN2C(=O)NC3(CCCc4ccccc43)C2=O)cc1 (configuration not stated), the cell number change was 8.43% and the AC50 [1] was 2.06 µM [rising, partial curve].
For CCc1ccc(C(C)NC(=O)c2ccc3c(c2)OCO3)cc1 (configuration not stated), the cell number change was 13.9% and the AC50 [1] was 20.6 µM [rising, single point].
In the case of COc1cccc(Nc2c3c(nc4c(-c5ccccc5)c(C)nn24)CCC3)c1, the AC50 [2] is reported as 6.51 µM [rising, single point] and the AC50 [1] is reported as 0.164 µM [rising, full curve, poor fit].
For COC(=O)c1ccccc1NC(=O)CSc1nncn1C, the cell number change was 19.3% and the AC50 [2] was 0.291 µM [rising, full curve, poor fit].
With Cc1ccc(S(=O)(=O)N2CCN(C(=O)COC(=O)C3CCC3)CC2)c(C)c1 the cell number change was 2.56% and the AC50 [1] was 20.6 µM [falling, single point].
For CCCCNc1c(-c2ccc(SC(C)CC)c(OC)c2)nc2ccc(C)cn12 (configuration not stated), the cell number change was -75.6%, the AC50 [2] was 20.6 µM [falling, partial curve] and the AC50 [1] was 0.13 µM [falling, full curve, poor fit].
With CCC1CCCCN1C(=O)c1cc(-c2ccc(Cl)c(Cl)c2)on1 (configuration not stated) the cell number change was -26.5% and the AC50 [1] was 23.1 µM [falling, single point].
For O=C1COc2ccc(C(=O)NC3CC3)cc2N1, the AC50 [2] was 1.46 µM [rising, full curve, poor fit].
With Cc1ccc(NC(=O)c2cc(S(=O)(=O)N3CCCCC3)c[nH]2)cc1F the cell number change was 15.6% and the AC50 [1] was 3.26 µM [falling, single point].
In the case of C/C(N)=C(/C#N)C(=O)COC(=O)C1CCN(C(=O)c2ccc(Cl)cc2)CC1, the cell number change is reported as -10.5% and the AC50 [2] is reported as 0.326 µM [falling, full curve].
With O=C(COC(=O)CCC(=O)c1ccc(Cl)cc1)NCC1CCCO1 (configuration not stated) the cell number change was 55.9% and the AC50 [2] was 20.6 µM [rising, partial curve].
With Cc1nnc(Sc2nc3ccccc3o2)c2ccccc12 the cell number change was -3.11% and the AC50 [1] was 3.26 µM [rising, single point].
